Measured data: PubChem BioAssay AID1224830 (NIAID, 2016)
Test: 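Regulators of TLR4 signalling towards TNF-alpha in macrophage-like cells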 (primary screen). System: human THP-1 monocytic leukaemia cells, TNF dual-luciferase reporter clone, PMA-differentiated to macrophage-like cells. Reagents: siRNA pool against human genes, 50 nM. Duration: LPS for 4 h, given about 3 days after siRNA transfection. Challenge: bacterial LPS (TLR4 ligand), 10 ng/ml. Detection: 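TNF firefly reporter luminescence divided by renilla, normalised to the plate median, then turned into a robust z-score for each replicate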. Reading the numbers: TNF reporter robust z-score: higher = stronger TNF reporter response to LPS. Hit rule: 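Each well counts as active if its z-score is over 2.8 or under -1.5; controls are left without a call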.
Shown is one part, drawn at random, of about 18,000 deposited reagents. About 2,900 of them (16%) count as active. 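Calls are made per well; low scores hint the gene aids the LPS response, high scores that it dampens it.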 A number with no mark means an inactive call. Repeated entries: four replicate wells of each siRNA pool. Reagent sequences are not shown.

| gene symbol | TNF reporter robust z-score |
| --- | --- |
| GPT2 | 0.68 |
| GPT2 | 0.04 |
| GPT2 | 0.11 |
| GPT2 | 2.35 |
| AK7 | -1.16 |
| AK7 | -1.72 (active) |
| AK7 | -1.25 |
| AK7 | -0.84 |
| VIL1 | 1.62 |
| VIL1 | 0.37 |
| VIL1 | 1.47 |
| VIL1 | 1.35 |
| AMOTL2 | -1.06 |
| AMOTL2 | 0.12 |
| AMOTL2 | -1.58 (active) |
| AMOTL2 | -0.54 |
| OR10A3 | 0.72 |
| OR10A3 | 0.55 |
| OR10A3 | 0.53 |
| OR10A3 | 1.58 |
| PAPSS2 | 0.08 |
| PAPSS2 | 0.22 |
| PAPSS2 | 0.95 |
| SLC60A1 | -0.6 |
| SLC60A1 | 0.24 |
| SLC60A1 | -1.17 |
| SLC60A1 | 0.46 |
| RPS19 | -0.34 |
| RPS19 | 0.12 |
| RPS19 | 0.26 |
| RPS19 | -0.31 |
| APEX1 | -0.79 |
| APEX1 | -0.66 |
| APEX1 | -0.54 |
| APEX1 | -1.14 |
| TAFA4 | 0.61 |
| TAFA4 | 0.4 |
| TAFA4 | -0.22 |
| TAFA4 | -0.11 |
| TAF5L | 1.3 |
| TAF5L | 1.47 |
| TAF5L | 0.24 |
| TAF5L | 0.81 |
| HSPA13 | -1.41 |
| HSPA13 | -1.26 |
| HSPA13 | -1.21 |
| HSPA13 | -1.29 |
